Data: the supplement of paper PMC6078165
The reference is the same well before dosing, and untreated signal decays as well.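 Fibroblast labels name human fibroblasts: mostly primary ones from tissues such as uterus (C12385, HUF), lung (H6013), bone (Hs27A), adrenal (HADF) and skin (WS1), plus mammary HMF and breast cancer-associated Hs343T. The cancer cells are basal-like or mesenchymal-like triple-negative breast cancer lines. The paper calls a changed response a hit when it shifts by more than 3x the replicate standard deviation. The tissue of the other fibroblasts is not given here.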

Test system: HCC1143
Assay: relative JC-1 red fluorescence (viability) vs pre-drug, coculture with fibroblast (fraction); higher = more viable cancer cells
Experimental: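 JC-1 labelled TNBC cells cocultured 1:1 (1,500 cells each) with CellTrace Violet stained primary or stromal fibroblasts in 384-well plates in FluoroBrite medium, treated with one of 42 anticancer drugs at 0.1, 1, 10 or 100 uM. JC-1 red fluorescence (mitochondrial integrity in cancer cells only) was read by plate reader every 8 h for 72 h. Values are normalised to each well's pre-drug value. The stock of one drug was tenfold lower, so its dose labels may be too high.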

CCC1=C[C@@H]2CN(C1)Cc1c([nH]c3ccccc13)[C@@](C(=O)OC)(c1cc3c(cc1OC)N(C)[C@H]1[C@@](O)(C(=O)OC)[C@H](OC(C)=O)[C@]4(CC)C=CCN5CC[C@]31[C@@H]54)C2 [Vinorelbine]
relative JC-1 red fluorescence
Conditions	8 h	16 h	24 h	32 h	40 h	48 h	56 h	64 h	72 h
0.1 µM, coculture fibroblast: C12385	0.886	0.7967	0.7514	0.704	0.636	0.595	0.567	0.552	0.548
0.1 µM, coculture fibroblast: H6013	0.8035	0.7036	0.672	0.664	0.609	0.615	0.607	0.599	0.5884
0.1 µM, coculture fibroblast: H6019	0.829	0.774	0.7482	0.7049	0.6761	0.673	0.639	0.6265	0.6064
0.1 µM, coculture fibroblast: H6076	0.811	0.794	0.74	0.693	0.658	0.635	0.609	0.592	0.611
0.1 µM, coculture fibroblast: H6231	0.842	0.883	0.769	0.636	0.666	0.633	0.59	0.555	0.53
0.1 µM, coculture fibroblast: HADF	0.793	0.715	0.675	0.659	0.555	0.53	0.505	0.493	0.479
0.1 µM, coculture fibroblast: HCFa	0.786	0.675	0.6278	0.6168	0.5332	0.5121	0.4756	0.445	0.428
0.1 µM, coculture fibroblast: HCPF	0.832	0.858	0.793	0.665	0.712	0.676	0.642	0.611	0.593
0.1 µM, coculture fibroblast: HHSteC	0.8372	0.725	0.687	0.663	0.591	0.564	0.53	0.512	0.481
0.1 µM, coculture fibroblast: HMF	0.835	0.82	0.75	0.688	0.665	0.628	0.591	0.569	0.554
0.1 µM, coculture fibroblast: HPFa	0.8946	0.798	0.7329	0.62	0.5694	0.54	0.492	0.467	0.448
0.1 µM, coculture fibroblast: HUF	0.89137	0.801	0.756	0.681	0.624	0.596	0.548	0.524	0.499
0.1 µM, coculture fibroblast: Hs5	0.8713	0.846	0.788	0.753	0.691	0.664	0.639	0.612	0.609
0.1 µM, coculture fibroblast: Hs27A	0.786	0.717	0.653	0.665	0.571	0.569	0.543	0.529	0.483
0.1 µM, coculture fibroblast: Hs343T	0.8378	0.7712	0.7076	0.66	0.615	0.579	0.547	0.531	0.519
0.1 µM, coculture fibroblast: WS1	0.831	0.735	0.673	0.595	0.536	0.5	0.473	0.455	0.454
1 µM, coculture fibroblast: C12385	0.8616	0.772	0.729	0.684	0.63	0.592	0.571	0.543	0.531
1 µM, coculture fibroblast: H6013	0.788	0.72	0.692	0.685	0.646	0.635	0.627	0.626	0.607
1 µM, coculture fibroblast: H6019	0.849	0.801	0.782	0.735	0.7	0.6928	0.663	0.642	0.619
1 µM, coculture fibroblast: H6076	0.79717	0.78	0.7661	0.748	0.6937	0.684	0.669	0.649	0.658
1 µM, coculture fibroblast: H6231	0.8452	0.851	0.7704	0.652	0.66969	0.631	0.589	0.551	0.531
1 µM, coculture fibroblast: HADF	0.802	0.723	0.699	0.693	0.617	0.5899	0.566	0.539	0.51801
1 µM, coculture fibroblast: HCFa	0.8002	0.699	0.662	0.674	0.605	0.579	0.554	0.527	0.519
1 µM, coculture fibroblast: HCPF	0.837	0.806	0.752	0.665	0.666	0.628	0.599	0.566	0.556
1 µM, coculture fibroblast: HHSteC	0.8827	0.829	0.805	0.776	0.717	0.682	0.643	0.621	0.566
1 µM, coculture fibroblast: HMF	0.8213	0.8542	0.809	0.738	0.735	0.701	0.664	0.637	0.628
1 µM, coculture fibroblast: HPFa	0.919	0.827	0.793	0.701	0.637	0.609	0.568	0.541	0.514
1 µM, coculture fibroblast: HUF	0.916	0.845	0.816	0.74	0.698	0.6806	0.631	0.6048	0.579
1 µM, coculture fibroblast: Hs5	0.8483	0.8349	0.798	0.778	0.72	0.701	0.684	0.676	0.677
1 µM, coculture fibroblast: Hs27A	0.8023	0.734	0.711	0.727	0.64	0.65	0.626	0.615	0.565
1 µM, coculture fibroblast: Hs343T	0.852	0.894	0.859	0.817	0.778	0.76	0.72	0.71	0.699
1 µM, coculture fibroblast: WS1	0.866	0.792	0.773	0.709	0.666	0.648	0.623	0.603	0.591
10 µM, coculture fibroblast: C12385	0.8854	0.8408	0.7974	0.748	0.699	0.653	0.624	0.583	0.557
10 µM, coculture fibroblast: H6013	0.759	0.698	0.667	0.678	0.594	0.568	0.545	0.518	0.58
10 µM, coculture fibroblast: H6019	0.8782	0.8202	0.7776	0.73	0.6956	0.6626	0.62	0.588	0.565
10 µM, coculture fibroblast: H6076	0.813	0.8954	0.904	0.784	0.827	0.793	0.754	0.744	0.717
10 µM, coculture fibroblast: H6231	0.816	0.94	0.867	0.5905	0.762	0.719	0.7	0.658	0.616
10 µM, coculture fibroblast: HADF	0.729	0.6741	0.65126	0.6583	0.56	0.528	0.512	0.486	0.5536
10 µM, coculture fibroblast: HCFa	0.77	0.697	0.671	0.702	0.593	0.567	0.561	0.549	0.623
10 µM, coculture fibroblast: HCPF	0.8313	0.967	0.903	0.678	0.828	0.7707	0.7504	0.7226	0.678
10 µM, coculture fibroblast: HHSteC	0.835	0.795	0.775	0.767	0.685	0.658	0.63	0.602	0.634
10 µM, coculture fibroblast: HMF	0.852	0.949	0.947	0.763	0.879	0.85	0.815	0.795	0.762
10 µM, coculture fibroblast: HPFa	0.943	0.869	0.841	0.746	0.725	0.696	0.653	0.618	0.587
10 µM, coculture fibroblast: HUF	0.9246	0.87	0.83	0.769	0.731	0.686	0.649	0.616	0.576
10 µM, coculture fibroblast: Hs5	0.845	0.904	0.943	0.851	0.849	0.819	0.783	0.759	0.739
10 µM, coculture fibroblast: Hs27A	0.768	0.714	0.68	0.721	0.581	0.536	0.518	0.497	0.602
10 µM, coculture fibroblast: Hs343T	0.859	0.833	0.951	0.797	0.859	0.816	0.77	0.76191	0.7194
10 µM, coculture fibroblast: WS1	0.878	0.835	0.792	0.736	0.692	0.657	0.617	0.586	0.557
100 µM, coculture fibroblast: C12385	0.638	0.451	0.225	0.145	0.0957	0.0768	0.0543	0.0327	0.0261
100 µM, coculture fibroblast: H6013	0.551	0.322	0.24	0.187	0.152	0.139	0.106	0.0837	0.0297
100 µM, coculture fibroblast: H6019	0.727	0.514	0.334	0.214	0.152	0.129	0.0959	0.0724	0.056
100 µM, coculture fibroblast: H6076	0.708	0.679	0.598	0.579	0.42	0.395	0.348	0.315	0.311
100 µM, coculture fibroblast: H6231	0.688	0.571	0.396	0.418	0.277	0.249	0.207	0.172	0.152
100 µM, coculture fibroblast: HADF	0.577	0.405	0.294	0.232	0.195	0.184	0.154	0.134	0.0764
100 µM, coculture fibroblast: HCFa	0.54	0.343	0.218	0.164	0.118	0.1005	0.0699	0.0481	0.00612
100 µM, coculture fibroblast: HCPF	0.664	0.582	0.431	0.415	0.292	0.25	0.205	0.171	0.155
100 µM, coculture fibroblast: HHSteC	0.618	0.45	0.361	0.305	0.265	0.252	0.219	0.197	0.135
100 µM, coculture fibroblast: HMF	0.66	0.5924	0.467	0.461	0.294	0.249	0.195	0.162	0.145
100 µM, coculture fibroblast: HPFa	0.716	0.574	0.423	0.334	0.272	0.252	0.207	0.186	0.16
100 µM, coculture fibroblast: HUF	0.627	0.424	0.268	0.164	0.105	0.0876	0.0532	0.0574	0.0438
100 µM, coculture fibroblast: Hs5	0.648	0.532	0.384	0.342	0.22	0.178	0.137	0.106	0.0934
100 µM, coculture fibroblast: Hs27A	0.503	0.354	0.21	0.157	0.0762	0.0777	0.0492	0.0332	0.0237
100 µM, coculture fibroblast: Hs343T	0.6916	0.623	0.481	0.468	0.306	0.268	0.218	0.178	0.151
100 µM, coculture fibroblast: WS1	0.637	0.34	0.199	0.124	0.0774	0.0567	0.0583	0.0488	0.0191
